± gives the standard deviation of the averaged measurements. The list shows a part of the results. Repeats are few or missing, and single values can be far off.
system: RAW 264.7 macrophages infected with S. aureus JE2-lux; assay: host macrophage viability (CellTiter-Fluor) relative to DMSO vehicle; higher = more viable host cells; settings: 10 µM; treatment time 4 h; gentamicin 50 µg/ml

**Q.** For `O=C(CSc1nc2c(oc3ccccc32)c(=O)n1Cc1cccs1)NCc1ccc(F)cc1`, which host macrophage viability is on record?
**A.** The host macrophage viability was 122%.

**Q.** With `CC(=O)Nc1c(-c2ccc(Cl)cc2)c(C)nn1-c1ccc(C(=O)Nc2nccs2)cc1` as the compound, how does the host macrophage viability read?
**A.** The host macrophage viability was 114%.

**Q.** How did the host macrophage viability turn out when `Cn1c(=O)c2c(nc(SCC(=O)Nc3sc4c(c3C#N)CCCC4)n2C)n(C)c1=O` was run?
**A.** The host macrophage viability was 105%.

**Q.** For `Cc1cc(F)ccc1NC(=O)Cn1cccc1-c1nc(-c2ccccc2)cs1`, which host macrophage viability is on record?
**A.** Its host macrophage viability is 81.9%.

**Q.** `O=C(O)CC1SC(=O)N(c2ccccc2)C1=O` (stereo not given) was tested. Which host macrophage viability did it give?
**A.** Its host macrophage viability is 112%.

**Q.** For `O=C(Cn1c(=O)c2ccccc2n2nncc12)NCc1ccccc1Cl`, which host macrophage viability is on record?
**A.** The host macrophage viability was 113%.

**Q.** `Cc1ccc2c(c1)C1CC(C)(O2)N(c2ccc(C(=O)O)cc2)C(=O)N1` (stereo not given) was tested. Which host macrophage viability did it give?
**A.** Its host macrophage viability is 108%.

**Q.** Which host macrophage viability does the source give for `COc1ccc(-c2ccnc3[nH]n(-c4nc(C)cc(C)n4)c(=O)c23)cc1` here?
**A.** Its host macrophage viability is 115%.

**Q.** Which host macrophage viability does the source give for `CCOC(=O)c1cc(C)nc2c1c(=O)n(Cc1ccccc1Cl)c(=O)n2C` here?
**A.** The host macrophage viability was 102%.

**Q.** For `CC(C)NC(=O)C1CCN(C(=O)c2cc(-c3ccccn3)[nH]n2)CC1`, which host macrophage viability is on record?
**A.** Its host macrophage viability is 119%.

**Q.** For `O=c1oc2ccccc2cc1-c1csc(Nc2nc3cc4c(cc3s2)OCO4)n1`, which host macrophage viability is on record?
**A.** Its host macrophage viability is 112 ± 9.5%.

**Q.** How did the host macrophage viability turn out when `O=C(CSc1nnc(NC(=O)C2CCCCC2)s1)Nc1nccs1` was run?
**A.** The host macrophage viability was 126%.

**Q.** How did the host macrophage viability turn out when `CC(=O)C1C(c2cccc(C)c2)NC(=O)NC1(O)C(F)(F)F` (stereo not given) was run?
**A.** Its host macrophage viability is 112%.

**Q.** Which host macrophage viability does the source give for `N#CC1=C(SCC(=O)Nc2ccc(Br)cc2)NC(=O)CC1c1ccc2c(c1)OCO2` (stereo not given) here?
**A.** Its host macrophage viability is 124%.

**Q.** `O=C(CN(C(=O)c1csnn1)c1cnc2ccccc2c1)NCc1ccc(F)cc1` was tested. Which host macrophage viability did it give?
**A.** The host macrophage viability was 120%.

**Q.** `CCSc1cccc(C(=O)Nc2sc3c(c2C#N)CCN(C(C)=O)C3)c1` was tested. Which host macrophage viability did it give?
**A.** Its host macrophage viability is 119%.

**Q.** How did the host macrophage viability turn out when `O=C(CCc1ccccc1)NCCn1nc(-c2cccs2)oc1=O` was run?
**A.** Its host macrophage viability is 137%.

**Q.** With `O=C(COc1ncnc2ccccc12)Nc1c[nH]c2ccccc12` as the compound, how does the host macrophage viability read?
**A.** Its host macrophage viability is 119%.

**Q.** With `Cc1ccc2nc(NC(=O)CSc3nnc4[nH]c(=O)c(C)c(C)n34)sc2c1` as the compound, how does the host macrophage viability read?
**A.** Its host macrophage viability is 102%.

**Q.** For `CCOc1ccc(C(=O)NCCSc2ncc(-c3ccccc3)[nH]2)cc1`, which host macrophage viability is on record?
**A.** Its host macrophage viability is 119%.

**Q.** Which host macrophage viability does the source give for `COc1cccc(C(=O)Nc2c3c(nn2-c2ccccc2C)CS(=O)C3)c1` (stereo not given) here?
**A.** The host macrophage viability was 125%.

**Q.** With `CC(Nc1nc2c(S(=O)(=O)c3ccc(Cl)cc3)nnn2c2ccccc12)c1ccccc1` (stereo not given) as the compound, how does the host macrophage viability read?
**A.** The host macrophage viability was 103%.

**Q.** Which host macrophage viability does the source give for `Cc1cc(Nc2ccc3c(c2)OCO3)n2c(n1)nc1ccccc12` here?
**A.** The host macrophage viability was 114%.

**Q.** With `COc1ccc(S(=O)(=O)Nc2cccc(-c3nc4cccnc4s3)c2)cc1F` as the compound, how does the host macrophage viability read?
**A.** The host macrophage viability was 131 ± 1.8%.

**Q.** For `CN1CCN(C(CNC(=O)c2ccc(Cl)cc2)c2ccc3c(c2)OCO3)CC1` (stereo not given), which host macrophage viability is on record?
**A.** Its host macrophage viability is 114%.

**Q.** `Cn1cnc(S(=O)(=O)NCc2nnc(C(=O)Nc3ccc(F)cc3F)s2)c1` was tested. Which host macrophage viability did it give?
**A.** The host macrophage viability was 96.4%.

**Q.** `COc1ccc(-n2c(-c3ccccc3)cn3c4c(=O)[nH]c(=O)n(C)c4nc23)cc1Cl` was tested. Which host macrophage viability did it give?
**A.** The host macrophage viability was 120%.

**Q.** With `O=C(CSc1nc(=O)n2ccccc2n1)Nc1cccc(Cl)c1` as the compound, how does the host macrophage viability read?
**A.** Its host macrophage viability is 108%.

**Q.** With `Cc1cc(C)c2s/c(=N\C(=O)CN3C(=O)c4ccccc4C3=O)n(C)c2c1` as the compound, how does the host macrophage viability read?
**A.** Its host macrophage viability is 108%.

**Q.** With `CCOC(=O)Cn1c(Cl)c(/C=N/NC(=O)c2ccc3ccccc3n2)sc1=O` as the compound, how does the host macrophage viability read?
**A.** Its host macrophage viability is 126%.

**Q.** For `COc1ccc(S(=O)(=O)Nc2cccc(C(=O)Nc3nc4cc5c(cc4s3)OCO5)c2)cc1`, which host macrophage viability is on record?
**A.** The host macrophage viability was 134%.

**Q.** `CCOC(=O)c1nc(Cl)c2c(C)c(C)n(-c3cccc(Cl)c3)c2n1` was tested. Which host macrophage viability did it give?
**A.** The host macrophage viability was 121%.

**Q.** `Cn1c(=O)[nH]c(=O)c2c1nc1n2CC(COc2ccc3ccccc3c2)O1` (stereo not given) was tested. Which host macrophage viability did it give?
**A.** Its host macrophage viability is 133%.

**Q.** `Cc1nc(SCC(=O)Nc2sc3c(c2C#N)CCCC3)c2c3c(sc2n1)CCC3` was tested. Which host macrophage viability did it give?
**A.** The host macrophage viability was 113%.

**Q.** For `COc1cccc(-c2cc(=O)n3c4ccccc4n(CC(=O)NC4CCCC4)c3n2)c1`, which host macrophage viability is on record?
**A.** Its host macrophage viability is 136%.

**Q.** For `O=C(Nc1ccccc1-c1ccccc1)N1CCC(c2nc3ccccc3o2)CC1`, which host macrophage viability is on record?
**A.** The host macrophage viability was 111%.

**Q.** Which host macrophage viability does the source give for `COCCNc1nc(-c2nnc(-c3cccc(C)c3)o2)nc2ccccc12` here?
**A.** Its host macrophage viability is 117%.

**Q.** Which host macrophage viability does the source give for `c1ccc(CN2CCN(c3ncnc4[nH]cnc34)CC2)cc1` here?
**A.** The host macrophage viability was 124%.

**Q.** With `Cn1c(CCC(=O)NC(c2ccccc2)c2cccnc2)nc2ccccc21` (stereo not given) as the compound, how does the host macrophage viability read?
**A.** Its host macrophage viability is 107%.

**Q.** How did the host macrophage viability turn out when `COc1ccccc1N1CCN(c2nc(C)c(CCC(C)C)c(=O)[nH]2)CC1` was run?
**A.** Its host macrophage viability is 129%.

**Q.** With `Cc1cccc(-c2nc3c(c(SCC(=O)N4CCOCC4)n2)Cc2c(CO)cnc(C)c2O3)c1` as the compound, how does the host macrophage viability read?
**A.** Its host macrophage viability is 100%.

**Q.** `Cc1ccc(Nc2cc(N3CCN(C(=O)c4cccs4)CC3)nc(C)n2)cc1` was tested. Which host macrophage viability did it give?
**A.** The host macrophage viability was 95.9%.

**Q.** `O=C(Cn1cnc2c(cnn2CCO)c1=O)N1CCC(Cc2ccccc2)CC1` was tested. Which host macrophage viability did it give?
**A.** The host macrophage viability was 126%.

**Q.** For `COc1ccc(Cl)cc1C(=O)Nn1cnc2c(cnn2-c2ccccc2)c1=O`, which host macrophage viability is on record?
**A.** Its host macrophage viability is 124%.

**Q.** `Cc1cccn2c(=O)c3cc(S(=O)(=O)c4ccc(Cl)cc4)c(=N)n(Cc4ccncc4)c3nc12` was tested. Which host macrophage viability did it give?
**A.** The host macrophage viability was 130%.

**Q.** `Cc1ccc(C)c2sc(N(Cc3ccccn3)C(=O)c3cccc(S(C)(=O)=O)c3)nc12` was tested. Which host macrophage viability did it give?
**A.** The host macrophage viability was 103%.

**Q.** With `COc1ccc(OC)c2[nH]c(=O)c(CCN3C(=O)c4ccccc4C3=O)cc12` as the compound, how does the host macrophage viability read?
**A.** The host macrophage viability was 102%.

**Q.** `Cc1cccc(-c2noc(C)c2C(=O)NCCn2ccnc2C)c1` was tested. Which host macrophage viability did it give?
**A.** The host macrophage viability was 116%.

**Q.** `O=C(NCc1ccccn1)C(=O)NCC(c1ccco1)N1CCc2ccccc21` (stereo not given) was tested. Which host macrophage viability did it give?
**A.** The host macrophage viability was 120%.

**Q.** Which host macrophage viability does the source give for `O=S(=O)(c1ccc(Cl)cc1)c1nnn2c1nc(NCc1ccc3c(c1)OCO3)c1sccc12` here?
**A.** Its host macrophage viability is 113%.

**Q.** `COc1ccc(-c2noc(N3CCC(C(=O)N4CCN(c5cc(Cl)ccc5C)CC4)CC3)n2)cc1` was tested. Which host macrophage viability did it give?
**A.** The host macrophage viability was 123%.

**Q.** Which host macrophage viability does the source give for `Cc1ccc2cc(C#N)c(N3CCN(C(=O)c4ccc(F)cc4)CC3)nc2c1` here?
**A.** Its host macrophage viability is 109%.

**Q.** With `COc1ccccc1CNC(=O)c1sc2nc(C)nc(N3CCCC3)c2c1C` as the compound, how does the host macrophage viability read?
**A.** The host macrophage viability was 95.2%.

**Q.** For `Cc1cc(C)c2cc(CN(Cc3ccc4c(c3)OCO4)C(=O)c3ccco3)c(Cl)nc2c1`, which host macrophage viability is on record?
**A.** The host macrophage viability was 110%.

**Q.** With `CCN(Cc1ccccc1)c1ncnc2c1cnn2-c1cccc(Cl)c1` as the compound, how does the host macrophage viability read?
**A.** The host macrophage viability was 111%.

**Q.** `Cc1ccc2cc(C)c3nn(CCNC(=O)Cc4c(C)nc(C)nc4O)c(=O)n3c2c1` was tested. Which host macrophage viability did it give?
**A.** The host macrophage viability was 118%.

**Q.** With `CCc1ccc2c(c1)C(O)(C1SC(N)=NC1=O)C(=O)N2` (stereo not given) as the compound, how does the host macrophage viability read?
**A.** The host macrophage viability was 103%.

**Q.** How did the host macrophage viability turn out when `COc1cccc(NC(=O)CCc2c(C)[nH]c3nc(NCc4ccccc4)nn3c2=O)c1` was run?
**A.** The host macrophage viability was 123%.

**Q.** Which host macrophage viability does the source give for `Cn1nc(C(C)(C)C)cc1C(=O)Nc1ccccc1NC(=O)c1ccccn1` here?
**A.** Its host macrophage viability is 91.4%.

**Q.** Which host macrophage viability does the source give for `NC(=O)CCSc1nnc(SCC(=O)c2ccccc2)s1` here?
**A.** The host macrophage viability was 110 ± 12%.

**Q.** With `Cc1nc(Nc2ccc(NC(=O)c3ccc4c(c3)OCO4)cc2)cc(N(C)C)n1` as the compound, how does the host macrophage viability read?
**A.** Its host macrophage viability is 108%.

**Q.** How did the host macrophage viability turn out when `O=C(NC1CCN(C(=O)Nc2cccc(Cl)c2)CC1)c1ccccc1` was run?
**A.** The host macrophage viability was 106%.

**Q.** `Cc1ccc(Cc2cnc(NC(=O)c3cc4ccccc4c(=O)o3)s2)cc1` was tested. Which host macrophage viability did it give?
**A.** Its host macrophage viability is 135%.

**Q.** With `N#Cc1ccc(C(=O)N(CCN2CCOCC2)c2nc3ccccc3s2)cc1` as the compound, how does the host macrophage viability read?
**A.** The host macrophage viability was 111%.

**Q.** Which host macrophage viability does the source give for `O=C(CSc1nc(O)c2nc[nH]c2n1)OCc1ccccc1` here?
**A.** The host macrophage viability was 113%.

— the supplement of paper PMC12578635
